# Experimental data taken from PubChem BioAssay AID493201 (National Center for Advancing Translational Sciences (NCATS), 2011).
# Only a part is listed here, and it is no random draw. Entries without a call were filed so in the source. Inconclusive results are not listed. Calls of active or inactive are those of the source. Calls come from the whole dose curve; as a rule, active = well fitted activation curve with a large enough effect; inconclusive = small, poorly fitted or top-dose-only effect; inactive = no such curve, though single readings can be large or run the other way.
# Assay: qHTS Assay for Identifying a Potential Treatment of Ataxia-Telangiectasia: Secondary assay (no NCS) hit validation;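 note: phosphorylated KAP1 signal as a proxy for ATM-like kinase activity; 0% is about no effect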
# Details: A-T patient fibroblasts, AlphaLISA, no DNA damage added, 90 min; at 76.9 µM (top of the series)
# Description: NIH Chemical Genomics Center [NCGC]
# NIH Molecular Libraries Probe Centers Network [MLPCN]
# Assay Submitter (PI): Wei Zheng and Yosef Shiloh
# Ataxia-telangiectasia (A-T) is a devastating and progressive disease for which, there is no cure. Although A-T is a multisystem disease, it is stereotyped characterized by its neurological symptoms such as truncal ataxia, due to cerebellar cortical degeneration of the Purkinje and granule cells. Other symptoms of A-T are telangiectasias (dilated blood vessels), primary immunodeficiency, marked sensitivity to ionizing radiation (IR), chromosomal instability and predisposition to cancer.
# The underlying genetic cause of A-T is null mutations in the ATM (A-T mutated) gene. ATM is a nuclear serine/threonine kinase that functions as a master regulator of the cellular responses to double strand breaks (DSBs) in the DNA. Upon activation by DSBs, ATM phosphorylates a plethora of downstream targets, including KAP-1 on […]. KAP-1 phosphorylation occurs shortly in response to DSBs and mediates global chromatin relaxation, which facilitates DSB repair. To screen for small molecules that will compensate for the loss of ATM in cells derived from A-T patients, we monitored KAP-1 phosphorylation as a readout for ATM-like activity using an AlphaLISA assay. This secondary assay omits NCS, which creates double-stranded DNA breaks.
# Step,Parameter,Value,Description
# 1. Cell Plating, 3 ul, 500 cells/well in OPTI-MEM, 1% FBS, 1% Pen/Strep
# 3. Library compounds, 23 nl, 76.7 - 0.61uM dilution series final concentration
# 4. Incubation, 60 min, 37C, 5% CO2, 95% humidity
# 6. Incubation, 30 min, 37C, 5% CO2, 95% humidity
# 7. Reagent, 1 ul, Premixed detection reagents and lysis buffer
# 8. Reagent, 1 ul, 0.6% Antifoam A
# 9. Incubation, 6 hr, 25C, 95% humidity
# 10. Readout, EnVision, EnVision plate reader. AlphaScreen 1536-well protocol
# Cells were plated using medium-binding white solid-bottom tissue culture treated Kalypsys plates. […] EnVision protocol for 1536-well AlphaScreen read (30ms excitation, 100ms read), about 10 min/plate.
row,Structure (SMILES),activation
1,CCC(=O)NC1=C(Cl)C(=O)C(NC(=O)CC)=C(Cl)C1=O,inactive: 16.1%
2,COCCNC(=O)c1c(N)n(-c2cccc(C)c2)c2nc3ccccc3nc12,180%
3,Cc1ccc(C(C)C)c(OCCN2CCc3ccccc3C2)c1,223%
